About 4,500 (1.3%) of roughly 340,000 compounds were called active. Inconclusive means that the source gave no clear call. Such entries were picked first, then a sample of the others. Calls follow the shape of the dose curve; as a rule, active = well fitted inhibition curve with a large enough effect; inconclusive = small, poorly fitted or top-dose-only effect, or another doubt; inactive = no such curve, though single readings can be large or run the other way. A potency beside an inconclusive call is a rough fit, not a confirmed value.
Each compound was assayed against DNA polymerase beta (Homo sapiens) (UniProt P06746) (assay: qHTS Assay for Inhibitors of DNA Polymerase Beta). Conditions: Pol beta primer extension/strand displacement, fluorescence kinetic; activity change, negative = inhibition: at 114 µM (top of the series).
Outline: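 Human Pol beta at 10 nM; strand-displacement substrate 50 nM final. Compound exposure 15 min at room temperature before start, reaction 10 min at room temperature.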
With `CCCCn1c(NCc2cc(Br)ccc2O)nc2ccccc21` the activity change, negative = inhibition was inconclusive: -32.1% [inhibitor].
`O=C(CSc1n[nH]c(=O)[nH]c1=O)N/N=C/C=C/c1ccccc1` was tested, and the Potency was inconclusive: 0.282 µM [inhibitor, full curve].
`CCN(c1ccccc1)S(=O)(=O)c1ccc(Oc2ccc(-n3ccnc3)cc2)nc1` was tested, and the Potency was active: 39.8 µM.
In the case of `COc1ccc(CN2CCn3ncc(C(=O)Nc4cccc(C)c4)c3C2=O)cc1`, the Potency is reported as “inactive”.
For `COc1ccc(/C=N/NC(=O)c2[nH]c3ccc(Br)cc3c2-c2ccccc2)c(C(=O)O)c1OC`, the activity change, negative = inhibition was inconclusive: -97% [inhibitor].
`Cc1[nH]nc2c1C(c1ccc(-c3ccccc3C#N)o1)C(C#N)=C(N)O2` (centres undefined) was tested, and the Potency was active: 56.2 µM.
With `CCCCCCCCCC[N+](C)(C)CC/C=C1/c2ccccc2Sc2ccc(Cl)cc21` the Potency was active: 39.8 µM.
With `CCC(C)Nc1oc(-c2ccc(COc3ccc(Cl)cc3)o2)nc1C#N` (centres undefined) the Potency was “inactive”.
For `CC1=C(C(=O)Nc2ccccc2)C(c2ccncc2)n2nc(SCc3ccccc3F)nc2N1` (centres undefined), the Potency was “inactive”.
With `O=S(=O)(c1ccc(Cl)cc1)c1cc(O)ccc1O` the Potency was inconclusive: 89.1 µM [inhibitor, single point].
In the case of `N=C(N)N=Nc1c(O)[nH]c2ccc(Br)cc12`, the Potency is reported as inconclusive: 0.316 µM [inhibitor, full curve, poor fit].
In the case of `NNC(=O)c1ccc(CSc2n[nH]c(=O)[nH]c2=O)cc1`, the Potency is reported as inconclusive: 39.8 µM [inhibitor, partial curve].
With `Cc1ccc(C2Nc3ccccc3C(=O)N2CCN2CCNC2=O)cc1` (centres undefined) the Potency was inconclusive: 89.1 µM [inhibitor, single point].
For `CCCCN(CCCC)c1ccc(C(=O)c2ccccc2C(=O)O)c(O)c1`, the Potency was active: 89.1 µM.
`O=C(COC(=O)c1ccc(S(=O)(=O)Nc2ccccc2)cc1)NCc1ccco1` was tested, and the Potency was inconclusive: 20 µM [inhibitor, partial curve, poor fit].
In the case of `N#C/C(C(=O)NCc1ccco1)=C1/SC(Cc2ccc(F)cc2)C(=O)N1c1ccccc1` (centres undefined), the Potency is reported as inconclusive: 89.1 µM [inhibitor, single point].
For `Cc1ccc(CCNC(=O)C2CCC(=O)N(CC3CCCCC3)C2)cc1` (centres undefined), the Potency was inconclusive: 20 µM [inhibitor, partial curve].
`O=C(NCC1COc2ccccc2O1)c1cc2ccccc2o1` (centres undefined) was tested, and the Potency was inconclusive: 89.1 µM [inhibitor, single point].
For `COCC(=O)N1CCN(c2cccc(C(F)(F)F)c2)CC1`, the Potency was inconclusive: 14.1 µM [inhibitor, partial curve, poor fit].
With `Cc1cc2c3c(c1C)C1(C(=O)N3C(C)(C)CC2C)C(C#N)=C(N)OC2=C1C(=O)CC(C)(C)C2` (centres undefined) the Potency was inconclusive: 0.251 µM [inhibitor, full curve, poor fit].
`O=C(Nc1ccc2oc(-c3ccncc3)nc2c1)c1ccco1` was tested, and the Potency was inconclusive: 89.1 µM [inhibitor, single point].
In the case of `COc1cccc(OCc2cc(=O)n3c(-c4ccccc4)csc3n2)c1`, the Potency is reported as active: 20 µM.
For `O=C(Nc1ccc2nn(-c3ccccc3)nc2c1)c1ccc(Br)o1`, the Potency was active: 20 µM.
`COc1ccc(CCNC(=O)Cn2nnc(-c3ccc(N(C)C)cc3)n2)cc1OC` was tested, and the Potency was inconclusive: 79.4 µM [inhibitor, single point].
`Cc1ccc(CC(=O)Nc2nncs2)cc1` was tested, and the Potency was inconclusive: 89.1 µM [inhibitor, single point].
`CC(C)Cn1c(C23CC4CC(CC(C4)C2)C3)n[nH]c1=S` was tested, and the Potency was “inactive”.
`CCN(C(=O)CN1CCN(c2ccc(O)cc2)CC1)c1c(N)n(Cc2ccccc2)c(=O)[nH]c1=O` was tested, and the Potency was active: 44.7 µM.
In the case of `O=c1oc2cc(O)ccc2cc1-c1nnc(Nc2ccccc2F)s1`, the activity change, negative = inhibition is reported as inconclusive: -88.1% [inhibitor].
`Cc1ccc(C(=O)Oc2c(S(=O)(=O)c3ccccc3)c(C)nn2-c2ccccc2)cc1` was tested, and the Potency was inconclusive: 89.1 µM [inhibitor, single point].
In the case of `COCCNC(=O)C(c1ccc(Cl)cc1)N(Cc1ccco1)C(=O)CCC(=O)Nc1ccccn1` (centres undefined), the Potency is reported as “inactive”.
With `COc1ccc(-n2c(-c3ccc(C)cc3)cc3c2CC(C)(C)CC3=O)c(OC)c1` the Potency was “inactive”.
`Cc1ccc(/C=c2/sc3n(c2=O)CCCN=3)o1` was tested, and the Potency was inconclusive: 100 µM [inhibitor, single point].
In the case of `Cc1ccc(S(=O)(=O)N2CCOC2CNC(=O)C(=O)NCc2ccc3c(c2)OCO3)cc1` (centres undefined), the Potency is reported as inconclusive: 0.282 µM [inhibitor, full curve, poor fit].
With `CC(C)Cn1c(N)c(C(=O)COC(=O)c2ccc3ccccc3n2)c(=O)n(C)c1=O` the Potency was inconclusive: 5.62 µM [inhibitor, full curve].
With `CCNc1ccc(Br)cc(C(=O)/C=C/c2ccc3c(c2)OCO3)c1=O` the Potency was active: 20 µM.
With `CC(C)[C@H](NC(=O)c1ccco1)C(=O)NC12CC3CC(CC(C3)C1)C2` the Potency was inconclusive: 0.141 µM [inhibitor, full curve, poor fit].
`CCOc1ccccc1NC(=O)Cn1c(=O)n(Cc2ccco2)c(=O)c2ccc(C(=O)NC3CCCC3)cc21` was tested, and the Potency was “inactive”.
With `C/C(=N\O)c1c(O)cc(-c2ccccc2)n(-c2ccccc2)c1=O` the Potency was inconclusive: 89.1 µM [inhibitor, single point].
`O=C1c2ccccc2NC(c2cccc(O)c2)N1Cc1ccco1` (centres undefined) was tested, and the Potency was inconclusive: 56.2 µM [inhibitor, partial curve, poor fit].
For `CC(C)Oc1ccc(/C(O)=C2/C(=O)C(=O)N(Cc3cccnc3)C2c2ccco2)cc1` (centres undefined), the Potency was active: 31.6 µM.
In the case of `COc1ccc(NC(=O)c2sc3nc(N4CCOCC4)c4c(c3c2N)CC(C(C)C)OC4)c(OC)c1` (centres undefined), the Potency is reported as “inactive”.
For `OCCC1CN(C2CSCCSC2)CCN1Cc1ccccc1` (centres undefined), the Potency was inconclusive: 79.4 µM [inhibitor, single point].
For `COc1ccc(-n2c(CN3CCN(c4ccccc4OC)CC3)nc3ccc([N+](=O)[O-])cc3c2=O)c(OC)c1`, the Potency was inconclusive: 3.98 µM [inhibitor, single point].
`Cc1c(Cl)cccc1-n1ncc(C(=O)NCc2cccs2)c1C1CCN(C(=O)OC(C)(C)C)CC1` was tested, and the Potency was “inactive”.
% is scaled to controls: 0 for no effect and ±100 for the full control effect; potency is read from the fitted curve at half-maximal effect.
